Laboratory results taken from paper PMC12748767.
Results are given in words; binding and its absence hold for the method and conditions named. Binding seen in cells or lysates may run through a third protein. Here binding means that the protein was enriched with, or labelled near, the bait; the list need not be complete.

By UniProt entry, the sequences of proteins in these tests, tags left out.
UniProt P60174: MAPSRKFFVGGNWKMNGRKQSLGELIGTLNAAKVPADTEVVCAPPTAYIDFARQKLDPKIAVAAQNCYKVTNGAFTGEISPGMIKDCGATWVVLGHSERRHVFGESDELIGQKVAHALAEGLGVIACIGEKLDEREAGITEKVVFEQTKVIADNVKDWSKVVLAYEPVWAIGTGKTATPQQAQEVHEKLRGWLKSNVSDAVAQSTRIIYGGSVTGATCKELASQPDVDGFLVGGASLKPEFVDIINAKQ

Molecular target: Triosephosphate isomerase 1 (TPI1) (human (endogenous in J82 and UMUC3)) (UniProt P60174)
Experiment: affinity purification with mass spectrometry; immunoprecipitation of TPI1 from cell lysate (IP Lysis Buffer, antibody or control IgG overnight at 4 °C, protein A/G magnetic beads), MS detection; cells not given

In the case of Beclin-1 (from UniProt Q14457 1-450), the binding is reported as “binds”.
